Results are given in words; binding and its absence hold for the method and conditions named. Binding seen in cells or lysates may run through a third protein. For part of these data: Binding calls can cover weak binding; strength is not graded here.
Key:
[1] = target: GST-Ssat1a fusion protein (zebrafish spermidine/spermine N1-acetyltransferase 1a) (zebrafish) (UniProt Q7T174); assay: pull-down; GST pull-down: 100 µg lysate of transfected HEK293T cells (Ssat1-transfected cells cultured with 10 µM DENSPM) mixed with 10 µg GST or GST fusion protein in 500 µl PBS at 4°C for 2 h, then glutathione-Sepharose 4B beads 30 min, washed with PBS; SDS-PAGE and western blotting; only the target …
[2] = target: GST-Ssat1b fusion protein (zebrafish spermidine/spermine N1-acetyltransferase 1b) (zebrafish) (UniProt Q4V8U3); assay: as above
[3] = target: GST-Ssat1c fusion protein (zebrafish spermidine/spermine N1-acetyltransferase 1c) (zebrafish) (UniProt Q6GQM2); assay: as above
[4] = target: GST-Ssat1a fusion protein (zebrafish spermidine/spermine N1-acetyltransferase 1a) (zebrafish) (UniProt Q7T174); assay: condition: 10 µg GST fusion protein with 100 µg lysate in 500 µl; pull-down; GST pull-down: 100 µg lysate of transfected HEK293T cells (Ssat1-transfected cells cultured with 10 µM DENSPM) mixed with 10 µg GST or GST fusion protein in 500 µl PBS at 4°C for 2 h, then glutathione-Sepharose 4B beads 30 min, washed with PBS; SDS-PAGE and western blotting; only the target …

The chains behind the UniProt entries cited, without tags or fusion partners. Where a name states a change or a piece, a line headed by the entry shows the natural chain unless it says otherwise.
UniProt Q7T174: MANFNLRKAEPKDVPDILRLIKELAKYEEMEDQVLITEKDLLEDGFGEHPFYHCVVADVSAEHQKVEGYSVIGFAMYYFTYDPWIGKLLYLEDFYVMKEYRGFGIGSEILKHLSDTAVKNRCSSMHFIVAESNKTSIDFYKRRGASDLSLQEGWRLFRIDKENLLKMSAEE
UniProt Q4V8U3: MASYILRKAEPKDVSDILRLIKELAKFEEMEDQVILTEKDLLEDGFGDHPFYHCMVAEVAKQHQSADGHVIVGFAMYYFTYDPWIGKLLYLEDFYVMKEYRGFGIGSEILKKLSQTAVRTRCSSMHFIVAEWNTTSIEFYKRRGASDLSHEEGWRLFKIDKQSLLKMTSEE
UniProt Q6GQM2: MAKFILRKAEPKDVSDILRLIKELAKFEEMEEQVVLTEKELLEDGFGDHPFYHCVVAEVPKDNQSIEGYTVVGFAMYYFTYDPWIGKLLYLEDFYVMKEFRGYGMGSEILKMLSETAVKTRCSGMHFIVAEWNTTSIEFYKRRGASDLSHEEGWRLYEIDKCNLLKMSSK
UniProt Q6EHI4: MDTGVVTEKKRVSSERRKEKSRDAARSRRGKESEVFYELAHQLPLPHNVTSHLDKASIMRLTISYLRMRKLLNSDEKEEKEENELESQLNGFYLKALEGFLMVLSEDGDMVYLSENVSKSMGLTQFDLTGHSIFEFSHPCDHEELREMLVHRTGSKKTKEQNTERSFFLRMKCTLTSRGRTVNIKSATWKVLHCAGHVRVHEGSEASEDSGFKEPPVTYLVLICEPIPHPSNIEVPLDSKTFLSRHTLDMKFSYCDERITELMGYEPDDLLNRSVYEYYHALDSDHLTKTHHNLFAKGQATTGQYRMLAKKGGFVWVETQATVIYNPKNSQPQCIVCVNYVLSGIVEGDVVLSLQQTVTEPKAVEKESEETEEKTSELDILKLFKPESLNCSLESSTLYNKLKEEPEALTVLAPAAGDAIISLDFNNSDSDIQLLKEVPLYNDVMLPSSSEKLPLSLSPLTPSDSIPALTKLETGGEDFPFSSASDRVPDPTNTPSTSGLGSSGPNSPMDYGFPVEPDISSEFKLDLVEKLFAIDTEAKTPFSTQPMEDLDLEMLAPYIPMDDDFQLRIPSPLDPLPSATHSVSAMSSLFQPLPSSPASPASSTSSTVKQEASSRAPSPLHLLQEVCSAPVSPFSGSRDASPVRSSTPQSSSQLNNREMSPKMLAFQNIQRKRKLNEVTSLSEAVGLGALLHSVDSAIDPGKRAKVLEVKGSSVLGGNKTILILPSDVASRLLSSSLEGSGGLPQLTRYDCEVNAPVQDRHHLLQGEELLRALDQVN

| Substance | binding [1] | binding [2] | binding [3] | binding [4] |
| --- | --- | --- | --- | --- |
| myc-tagged zebrafish Ssat1b (from UniProt Q4V8U3) (enzyme) | binds | – | – | – |
| myc-tagged PAS-B domain of zebrafish Hif-1α (from UniProt Q6EHI4) (domain or fragment) | – | binds | binds | no binding |
| myc-tagged zebrafish Ssat1c (from UniProt Q6GQM2) (enzyme) | binds | binds | – | – |

Source: article PMC3543422
